The target of this experiment is HERV-K ENV (HERV-K113 clone) expressed in HEK293T cells (pCMV-HERV-K ENV) (human) (UniProt Q902F9). The experiment is described as follows: automated capillary Western blot (Simple Western, WES); lysates of transfected HEK293T cells in RIPA with 1% fos-cholin 16, soluble and insoluble fractions, denatured at 95 °C; 12-230 kDa and 66-440 kDa matrices; detection with GN_mAb_Env01, GN_mAb_Env04, GN_mAb_Env-K01 or anti-FLAG.

Chains of the proteins cited; added tags and fusions are not shown. Residues count along the entry.
UniProt Q902F9, residues 90-699: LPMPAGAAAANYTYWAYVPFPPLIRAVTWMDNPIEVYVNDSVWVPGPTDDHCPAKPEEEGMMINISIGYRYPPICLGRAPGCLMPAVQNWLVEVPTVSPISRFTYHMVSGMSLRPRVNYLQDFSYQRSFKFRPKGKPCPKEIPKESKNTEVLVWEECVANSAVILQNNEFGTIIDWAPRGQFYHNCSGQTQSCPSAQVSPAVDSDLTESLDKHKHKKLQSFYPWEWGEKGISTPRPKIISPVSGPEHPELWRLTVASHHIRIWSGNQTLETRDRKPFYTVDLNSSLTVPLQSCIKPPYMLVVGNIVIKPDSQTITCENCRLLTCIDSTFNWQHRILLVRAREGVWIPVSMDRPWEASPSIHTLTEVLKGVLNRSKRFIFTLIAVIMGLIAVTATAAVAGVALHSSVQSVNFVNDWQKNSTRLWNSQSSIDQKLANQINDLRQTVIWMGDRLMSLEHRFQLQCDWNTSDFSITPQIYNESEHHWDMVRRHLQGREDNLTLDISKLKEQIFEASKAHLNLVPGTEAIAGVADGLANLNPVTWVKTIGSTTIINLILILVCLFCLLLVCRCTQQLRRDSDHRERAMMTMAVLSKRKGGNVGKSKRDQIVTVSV

Results are given in words; binding and its absence hold for the method and conditions named.

In the case of “HERV-K ENV (HERV-K113 clone) expressed in HEK293T cells (pCMV-HERV-K ENV) (from UniProt Q902F9 90-699)”, the binding entry was “no binding”.

(Values after publication PMC8558138.)
